Assay results: publication PMC3551969
No constants are given. Whether binding was seen depends on the method and setting. Some binding calls cover weakened binding; strength is not graded here.

Protein sequences, listed by entry. Tags and fused reporters are not part of them. Lines headed by an entry give the natural chain unless they say otherwise; changes in a name come on top. Residues count along the entry.
UniProt P69968: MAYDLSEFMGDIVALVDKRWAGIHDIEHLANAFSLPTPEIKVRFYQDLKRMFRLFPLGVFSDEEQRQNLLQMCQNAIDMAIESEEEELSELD
UniProt P69955: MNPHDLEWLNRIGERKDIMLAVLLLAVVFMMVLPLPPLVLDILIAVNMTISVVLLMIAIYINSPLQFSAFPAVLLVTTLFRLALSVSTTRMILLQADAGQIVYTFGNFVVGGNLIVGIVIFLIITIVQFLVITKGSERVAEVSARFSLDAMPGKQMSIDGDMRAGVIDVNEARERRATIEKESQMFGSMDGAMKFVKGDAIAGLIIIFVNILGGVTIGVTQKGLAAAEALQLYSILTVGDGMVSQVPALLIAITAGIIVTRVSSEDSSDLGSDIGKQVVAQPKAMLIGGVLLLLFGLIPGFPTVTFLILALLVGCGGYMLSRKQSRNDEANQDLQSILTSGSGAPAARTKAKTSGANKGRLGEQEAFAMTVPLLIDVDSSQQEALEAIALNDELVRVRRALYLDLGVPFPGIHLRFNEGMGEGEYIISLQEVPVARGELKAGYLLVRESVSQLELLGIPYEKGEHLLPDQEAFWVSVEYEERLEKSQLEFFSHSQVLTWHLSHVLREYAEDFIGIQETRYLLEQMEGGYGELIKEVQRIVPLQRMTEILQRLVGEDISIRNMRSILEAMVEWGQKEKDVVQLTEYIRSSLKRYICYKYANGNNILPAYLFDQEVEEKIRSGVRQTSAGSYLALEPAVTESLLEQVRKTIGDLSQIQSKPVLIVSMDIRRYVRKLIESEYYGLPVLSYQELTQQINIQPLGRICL
LcrD_((1–500)): residues 1-500 of P69955
LcrD_((207–705)): residues 207-704 of P69955
UniProt Q56973: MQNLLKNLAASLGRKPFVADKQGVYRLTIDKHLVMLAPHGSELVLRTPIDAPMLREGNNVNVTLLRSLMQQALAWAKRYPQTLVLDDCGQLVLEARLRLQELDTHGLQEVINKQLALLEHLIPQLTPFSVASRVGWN
UniProt P68640: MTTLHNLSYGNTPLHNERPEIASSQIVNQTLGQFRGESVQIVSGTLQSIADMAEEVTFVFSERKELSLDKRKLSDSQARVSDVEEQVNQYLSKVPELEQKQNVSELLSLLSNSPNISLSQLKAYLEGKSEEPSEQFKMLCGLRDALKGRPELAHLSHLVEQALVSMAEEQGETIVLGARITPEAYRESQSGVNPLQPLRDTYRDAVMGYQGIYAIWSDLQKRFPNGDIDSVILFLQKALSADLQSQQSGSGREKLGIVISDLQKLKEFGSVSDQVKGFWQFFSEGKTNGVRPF
UniProt P21207: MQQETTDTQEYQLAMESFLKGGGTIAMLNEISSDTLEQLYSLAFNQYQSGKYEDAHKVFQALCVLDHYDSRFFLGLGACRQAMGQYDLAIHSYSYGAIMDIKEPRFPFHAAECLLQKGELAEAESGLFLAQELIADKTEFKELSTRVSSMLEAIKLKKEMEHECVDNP
UniProt P69959: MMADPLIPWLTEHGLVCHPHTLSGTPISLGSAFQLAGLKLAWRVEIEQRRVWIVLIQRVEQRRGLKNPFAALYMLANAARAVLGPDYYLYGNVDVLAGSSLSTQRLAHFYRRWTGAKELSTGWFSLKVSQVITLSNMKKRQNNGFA
UniProt O68690: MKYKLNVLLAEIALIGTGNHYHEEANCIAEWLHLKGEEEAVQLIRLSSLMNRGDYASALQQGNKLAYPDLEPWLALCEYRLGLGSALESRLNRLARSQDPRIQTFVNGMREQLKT
UniProt P31493: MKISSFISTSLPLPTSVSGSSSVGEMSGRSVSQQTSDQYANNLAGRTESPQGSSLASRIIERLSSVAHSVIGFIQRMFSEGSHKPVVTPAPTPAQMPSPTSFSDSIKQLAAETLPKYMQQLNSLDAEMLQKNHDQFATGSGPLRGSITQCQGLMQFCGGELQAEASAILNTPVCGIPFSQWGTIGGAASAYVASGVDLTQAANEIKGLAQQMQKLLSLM
UniProt P61380: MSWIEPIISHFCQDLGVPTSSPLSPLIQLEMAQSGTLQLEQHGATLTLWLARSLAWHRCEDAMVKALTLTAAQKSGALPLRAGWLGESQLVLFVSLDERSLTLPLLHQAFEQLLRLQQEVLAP
UniProt O68693: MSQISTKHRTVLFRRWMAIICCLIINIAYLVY
UniProt O68692: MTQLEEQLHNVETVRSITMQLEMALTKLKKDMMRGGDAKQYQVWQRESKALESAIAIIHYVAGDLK

Key:
Assay in all cases: two-hybrid
[1] = molecular target: TyeA (Y. pestis) (UniProt P69968)
[2] = molecular target: LcrD_((207–705)) (Y. pestis) (UniProt P69955)
[3] = molecular target: LcrD_((1–500)) (Y. pestis) (UniProt P69955)
[4] = molecular target: YscB (Y. pestis) (UniProt Q56973)
[5] = molecular target: YopN (Y. pestis) (UniProt P68640)
[6] = molecular target: SycD (Y. pestis) (UniProt P21207)
[7] = molecular target: LcrR (Y. pestis) (UniProt P69959)
[8] = molecular target: YscG (Y. pestis) (UniProt O68690)

YopN (from UniProt P68640 1-293)
binding [1]: binds

YopE (from UniProt P31493 1-219)
binding [2]: binds | binding [3]: no binding

SycN (from UniProt P61380 1-123)
binding [4]: binds | binding [5]: no binding

YscG (from UniProt O68690 1-115)
binding [1]: binds | binding [6]: binds

YscB (from UniProt Q56973 1-137)
binding [5]: no binding

YscA (from UniProt O68693 1-32)
binding [7]: binds

YscE (from UniProt O68692 1-66)
binding [8]: binds
